At least one structure is not confirmed: it was looked up by name or label, or the drawing left a doubt.
Tested on: L929 cells
Test: Apoptosis induction by azoles in L929 cells with TGF-beta
Format: cell-based, murine
Conditions: 2 mM histidine; 3-AT at 25 mM
Method: FIG. 3 discloses experimental data obtained with 25000 L929 cells in 48 well tissue culture clusters in the presence of 20 ng/ml TGF-beta. Itraconazole was added at the indicated concentrations, in the presence or absence of 2 mM histidine (singlet oxygen scavenger). The percentage of apoptotic cells was determined after 37 hrs.
The dashed lines indicate the percentage of apoptotic cells obtained when the tumor cell catalase was blocked by 25 mM […] (3-AT).
FIG. 4 discloses experimental data obtained with 25000 L929 cells in 48 well tissue culture clusters in the presence of 20 ng/ml TGF-beta. “No addition” represents the control without addition of compound. […] The percentage of apoptotic cells was determined after 63 hrs.
The first step comprises contacting tumor cells in media comprising TGF-beta with the test compounds to be analyzed for their properties of apoptosis induction. After a specific incubation time, the extent of apoptosis induction is determined, e.g. after two days. Methods for determining the apoptosis in cells in a quantitative manner are well known in the art and are for example described by Jürgensmeier et al. (Cancer Research 1994; 54:393-398). […] These features of apoptotic cells can be determined through phase contrast microscopy or after chromatin staining with fluorescent dyes, followed by fluorescence microscopy. […]

CCC(C)n1ncn(-c2ccc(N3CCN(c4ccc(OCC5COC(Cn6cncn6)(c6ccc(Cl)cc6Cl)O5)cc4)CC3)cc2)c1=O (stereo not shown) [Itraconazole]
effect of histidine on induced apoptosis: significantly inhibited
